Reference: PubChem BioAssay AID939 (National Center for Advancing Translational Sciences (NCATS), 2007)
The inconclusive results got no clear call from the source; some entries with a clear call stand among them for comparison. Where the call is inconclusive, the potency comes from a doubtful curve fit. Active and inactive are the calls of the source. Calls follow the shape of the dose curve; as a rule, active = well fitted activation curve with a large enough effect in the main read-out, with a control signal flat; inconclusive = small, poorly fitted or top-dose-only effect, or effect the other way, or a change in a side signal; inactive = no such curve, though single readings can be large or run the other way.

Protein sequences, listed by entry. Tags and fused reporters are not part of them.
UniProt P16473, whole entry, looked up: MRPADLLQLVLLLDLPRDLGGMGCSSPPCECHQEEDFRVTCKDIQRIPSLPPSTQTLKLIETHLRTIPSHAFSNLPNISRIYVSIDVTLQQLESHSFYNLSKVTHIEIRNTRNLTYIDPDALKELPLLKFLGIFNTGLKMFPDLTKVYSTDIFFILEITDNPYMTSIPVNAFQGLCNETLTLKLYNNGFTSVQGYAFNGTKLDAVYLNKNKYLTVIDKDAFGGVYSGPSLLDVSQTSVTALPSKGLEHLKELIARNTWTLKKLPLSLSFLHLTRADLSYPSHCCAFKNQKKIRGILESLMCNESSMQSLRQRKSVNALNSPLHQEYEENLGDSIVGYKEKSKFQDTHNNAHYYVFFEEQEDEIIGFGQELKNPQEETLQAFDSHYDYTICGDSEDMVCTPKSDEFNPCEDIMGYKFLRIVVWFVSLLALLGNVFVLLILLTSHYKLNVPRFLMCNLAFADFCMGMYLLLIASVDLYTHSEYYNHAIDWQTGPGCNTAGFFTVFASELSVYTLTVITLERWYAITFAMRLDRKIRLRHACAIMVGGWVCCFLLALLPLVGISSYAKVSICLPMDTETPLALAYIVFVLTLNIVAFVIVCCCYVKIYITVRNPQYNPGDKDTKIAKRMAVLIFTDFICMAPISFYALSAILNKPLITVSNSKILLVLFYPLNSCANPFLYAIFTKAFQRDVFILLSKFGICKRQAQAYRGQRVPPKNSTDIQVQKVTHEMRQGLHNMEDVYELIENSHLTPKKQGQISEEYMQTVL

biological target: Thyrotropin receptor (Homo sapiens) (UniProt P16473); assay: Confirmation Concentration-Response Assay for Agonists of the Thyroid Stimulating Hormone Receptor; details: HEK293 TSHR-CNG cells, membrane potential dye, cAMP; series mostly up to 25.6 µM; activation: at the top concentration; as to activation: % of control where 0% means no effect
From the text: NIH Chemical Genomics Center [NCGC] NIH Molecular Libraries Screening Centers Network [MLSCN] MLSCN Grant: 1 X01 MH080680-01 PI Name: Dr. Marvin Gershengorn, NIH NCGC Assay Overview: Thyroid Stimulating Hormone Receptor TSH is an alpha/beta heterodimeric glycoprotein hormone secreted from the anterior pituitary gland which belongs to the glycoprotein hormone family. The actions of TSH are mediated by a seven-transmembrane receptor, which upon TSH binding couples preferentially to the G-alpha (s) protein (Gs), resulting in activation of adenylate cyclase and increase in cyclic adenosine 3', 5' monophosphate (cAMP). The TSH receptor (THSR) is mainly expressed in thyroid follicular cells and regulates their growth and function. Recombinant TSH is used to activate TSHR in patients with thyroid cancer receiving thyroid hormone suppression therapy and to screen for residual tumor after surgery, but it is expensive and must be administered intramuscularly. An orally active small molecule TSHR agonist would serve as an invaluable research tool for studying TSHR pharmacology and physiology, and would have multiple advantages in therapeutic settings. However, no selective small molecule agonist of the TSH receptor exists, and no small molecule screen for TSHR agonists has ever been reported. This cell based assay utilized a cyclic nucleotide gated ion channel (CNG) as a biosensor for cAMP induction by potential TSHR agonists. TSHR cell line HEK 293 cells stably expressing the TSHR as well as a modified CNG were purchased from BD biosciences. […]
NCGC Assay Protocol Summary: High Throughput Screening. […] 23 nl/well compound or control was then added to the assay plates, which were incubated for additional 30 min before reading a Envision fluorescence plate reader (Perkin Elmer) in bottom-read mode for fluorescence intensity (emission at 590 nm). Keywords: Thyroid-stimulating hormone TSH, TSHR, TSHR agonist, quantitative high throughput screening, qHTS, HTS, probe identification, CNG, cAMP, cyclic nucleotide gated ion channel PubChem
Potency is read from the fitted curve at half-maximal effect.

SMILES	activation	Potency
CCC(=NCC1CCCO1)c1c(O)n(Cc2ccccc2)c(=O)[nH]c1=O (stereo not drawn)	inactive: 7.43%	
O=C(Nc1nc2ccccc2n1CCN1CCCC1)c1ccc(Cl)cc1	inactive: -94.7%	
O=C(Nc1ccccn1)NC12CC3CC(CC(C3)C1)C2		inconclusive: 15.8 µM [activator, partial curve, poor fit]
